Some entries of the source have several records that differ or are many. Only these are listed. An entry can have further records. Results that share an entry differ, and nothing given here explains why; some may be repeats, others may stem from another dose, organism or construct than stated.
Molecular target: LMPTP-A (Low Molecular Weight Protein Tyrosine Phosphatase-A) enzyme (Homo sapiens (Human), UniProt P24666)
Assay: LMPTP primary screening / LMPTP (OMFP) enzyme inhibition assay, fluorescence intensity
Type: biochemical
Details: read-out: LMPTP (OMFP) (IC50); Table 2 quinoline series; S sample (synthesized de novo)

By UniProt entry, the sequences of proteins in these tests, tags left out.
UniProt P24666, whole entry: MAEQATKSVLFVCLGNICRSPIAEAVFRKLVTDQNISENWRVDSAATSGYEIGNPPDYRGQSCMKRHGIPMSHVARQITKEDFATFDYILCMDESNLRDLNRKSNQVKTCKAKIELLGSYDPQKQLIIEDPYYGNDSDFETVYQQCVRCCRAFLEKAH

IC50: 10 µM and 21.1 µM
Compound: c1ccc(-c2cc(NC3CCCC3)c3ccccc3n2)cc1

Reference: patent US10626094B2 (La Jolla Institute of Allergy & Immunology, priority 2014, dated 2020)
